The list shows a part of the results. Further columns of the screen follow, without active or inactive calls. The list favours compounds with an active or inconclusive main result. The note in brackets gives the kind of curve behind each potency; many fits are weak.
Test: qHTS Assay for Lipid Storage Modulators in Drosophila S3 Cells;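 on cell number change: cells counted by Cell Tracker Red CMTPX staining in the red channel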
Settings: BODIPY lipid droplet fluorescence, 18-24 h; for cell number change: measured here: cell count max response, cells fed with added oleic acid
How it was run: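 Drosophila S3 cells loaded with oleic acid (400 uM, as added) and compounds at several concentrations; lipid droplets imaged by 488-nm laser-scanning cytometry, 500–530 nm intensity and object ratio to cell channel. Percent activity normalized to 20 uM Triacsin C.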

[1] = measured here: lipid fluorescence (Fed channel) AC50, cells fed with added oleic acid
[2] = measured here: cell number channel AC50, cells fed with added oleic acid

## CN(CC(=O)Nc1ccc(F)c(F)c1F)C(=O)C1CSC2(C)CCC(=O)N12 (stereo unspecified)
  cell number change: 20.4%
[1]
  AC50: 0.092 µM [falling, full curve, poor fit]

## O=C(CCS(=O)(=O)c1cc(Br)cc2c1N(C(=O)C1CC1)CC2)NCC1CCCO1 (stereo unspecified)
[2]
  AC50: 3.66 µM [rising, single point]

## O=C(O/N=C1\CCS(=O)(=O)c2sccc21)c1c(F)cccc1F
[2]
  AC50: 0.103 µM [rising, full curve, poor fit]
[1]
  AC50: 0.0731 µM [rising, full curve, poor fit]

## Cc1nc(C(C)(C)O)n(-c2ccccc2)n1
  cell number change: 0.272%
[1]
  AC50: 6.51 µM [falling, single point]

## CCOCCCn1c(SCc2ccccc2)nnc1-c1ccncc1
  cell number change: 11.3%
[1]
  AC50: 6.51 µM [falling, single point]

## O=C(NC1=C(Nc2ccc(F)cc2)C(=O)c2ccccc2C1=O)c1ccc(Cl)cc1
  cell number change: -88.5%
[2]
  AC50: 14.6 µM [falling, partial curve]
[1]
  AC50: 14.6 µM [falling, partial curve, poor fit]

## CCCCNC(=O)CCNC(=O)c1ccc(C(C)(C)C)cc1
  cell number change: -20.1%
[1]
  AC50: 7.31 µM [falling, partial curve]

## Cc1c(NC(=O)CN2CCN(c3cccc(Cl)c3)CC2)c(=O)n(-c2ccccc2)n1C
  cell number change: -28.4%
[1]
  AC50: 0.082 µM [falling, full curve, poor fit]

## CCOc1ccc2nc3sc(C(=O)N4CCN(C)CC4)c(N)c3cc2c1
  cell number change: 23.5%
[1]
  AC50: 0.651 µM [rising, partial curve]

## CCN(CC)S(=O)(=O)c1ccc(N2CCOCC2)c(NC(=O)Cc2ccccc2)c1
  cell number change: -22%
[1]
  AC50: 1.46 µM [falling, partial curve, poor fit]

## COc1ccc(/C=C/c2nc3cc(-c4ccccc4)ccc3o2)cc1O
  cell number change: 22.7%
[1]
  AC50: 3.26 µM [rising, partial curve, poor fit]

## Cn1cc(CN2CCN(c3ccccc3)CC2)c2ccccc21
  cell number change: 20%
[1]
  AC50: 7.31 µM [rising, partial curve, poor fit]

## Cc1ccc(OCCOc2ccc(Br)cc2/C=N\NC(N)=O)cc1
  cell number change: -50.2%
[2]
  AC50: 29.1 µM [falling, single point]
[1]
  AC50: 20.6 µM [falling, single point]

## Cc1ccc(C)c(S(=O)(=O)N2CCCOC2CNC(=O)C(=O)NC2CC2)c1 (stereo unspecified)
  cell number change: 21.7%
[1]
  AC50: 0.13 µM [rising, full curve, poor fit]

## CCOC(=O)CN(C(=O)CNC(=O)c1ccco1)C(C(=O)NC1CCCC1)c1ccccc1OCC (stereo unspecified)
  cell number change: -2.81%
[1]
  AC50: 29.1 µM [rising, single point]

## CCOC(=O)c1c(C)[nH]c(C(=O)OCC(=O)c2c(N)n(C)c(=O)n(C)c2=O)c1C
  cell number change: 8.22%
[1]
  AC50: 0.1 µM [rising, partial curve, poor fit]

## O=C(N1CCCCC1)C1(c2ccccc2)CCCCC1
  cell number change: -34.4%
[2]
  AC50: 16.4 µM [falling, single point]

## CCCC(c1nnnn1C(C)(C)CC)N1CCN(C2CCCC2)CC1 (stereo unspecified)
  cell number change: -5.23%
[2]
  AC50: 0.164 µM [rising, full curve, poor fit]

## Cc1ccsc1CN(C)C(=O)CCc1nnc(COc2ccccc2)o1
  cell number change: -7.29%
[1]
  AC50: 29.1 µM [falling, single point]

## N#C/C(=C(/O)COC(=O)c1cccnc1Cl)c1nc2ccccc2[nH]1
  cell number change: 4.75%

## COc1cccc(OC)c1OCCN(C)C
  cell number change: -43.9%
[2]
  AC50: 20.6 µM [falling, single point]

## CCCc1cc(=O)[nH]c(SCC(=O)c2c(N)n(C3CC3)c(=O)[nH]c2=O)n1
  cell number change: -7.23%
[1]
  AC50: 0.0291 µM [falling, full curve, poor fit]

## COc1ccc(N2CC(C(=O)NCCc3c[nH]c4ccccc34)CC2=O)cc1 (stereo unspecified)
  cell number change: 17.6%

## CC1CCCCC1NC(=O)COC(=O)c1ccc2ncsc2c1 (stereo unspecified)
  cell number change: 9.77%
[1]
  AC50: 29.1 µM [rising, partial curve]

## CC(=O)Oc1ccc2occ(C(=O)c3cccs3)c2c1
[1]
  AC50: 23.1 µM [falling, single point]

## COCC(=O)Nc1nnc(COc2ccccc2)s1
  cell number change: -16.1%
[2]
  AC50: 0.092 µM [falling, full curve]
[1]
  AC50: 0.164 µM [falling, full curve]

## CCCCNC(=O)COC(=O)c1cc(C)oc1C
  cell number change: 11.3%
[1]
  AC50: 29.1 µM [falling, partial curve]

## Cc1cc(C)n2nc(SCCC(=O)NCCc3ccccc3)nc2n1
  cell number change: 104%
[2]
  AC50: 5.17 µM [rising, partial curve]
[1]
  AC50: 29.1 µM [rising, partial curve, poor fit]

## O=C(Cn1ccc2ccccc2c1=O)NCC(=O)N1CCN(c2ccccc2F)CC1
  cell number change: -13.5%
[1]
  AC50: 0.184 µM [falling, partial curve, poor fit]

## COc1ccc(-c2cc3ccccc3n2CC(O)CN2CCCCC2)cc1 (stereo unspecified)
  cell number change: -19.3%
[2]
  AC50: 0.00411 µM [falling, full curve, poor fit]
[1]
  AC50: 0.82 µM [falling, full curve, poor fit]

## CC(NC(=O)Nc1ccccc1C(F)(F)F)C1CCCO1 (stereo unspecified)
  cell number change: -180%
[2]
  AC50: 29.1 µM [falling, single point]

## COc1ccc(C2=NOC(C(=O)N3CCN(c4ccccc4OC)CC3)C2)cc1 (stereo unspecified)
  cell number change: 11.8%

## COC(=O)Cn1c(=NC(=O)c2sc3ccccc3c2Cl)sc2cc(S(N)(=O)=O)ccc21
  cell number change: -22.9%
[1]
  AC50: 0.092 µM [rising, full curve, poor fit]

## CCCn1c(=O)c(C(=O)NNC(=O)c2ccc(Cl)cc2Cl)c(O)c2ccccc21
  cell number change: 4.2%
[1]
  AC50: 29.1 µM [falling, single point]

## Cc1cc(=O)n2nc(N3CCCC(C(=O)N4CCc5ccccc54)C3)sc2n1 (stereo unspecified)
  cell number change: 105%
[2]
  AC50: 18.4 µM [rising, partial curve]

## Cc1ccnc(NC(=O)c2c(O)c3ccccc3n(C)c2=O)c1
  cell number change: 8.35%
[2]
  AC50: 5.8 µM [falling, single point]

## COc1ccc(C2C3=C(N=C4SCC(=O)N42)c2ccccc2CC3)cc1OC (stereo unspecified)
  cell number change: 5.51%
[1]
  AC50: 0.411 µM [rising, full curve, poor fit]

## CC(OC(=O)CC1CCCCC1)C(=O)Nc1ccc(S(N)(=O)=O)cc1 (stereo unspecified)
  cell number change: -36.5%
[2]
  AC50: 14.6 µM [falling, partial curve, poor fit]
[1]
  AC50: 29.1 µM [falling, single point]

## COc1ccc(-c2nc(N)ncc2Oc2ccccc2Br)c(O)c1
  cell number change: -34.3%
[2]
  AC50: 16.4 µM [falling, single point]
[1]
  AC50: 0.92 µM [rising, partial curve, poor fit]

## COc1ccc(-c2csc(N(CC3CCCO3)C(=O)c3ccc(C)cc3)n2)cc1 (stereo unspecified)
  cell number change: -25%
[1]
  AC50: 20.6 µM [falling, single point]

## Cc1noc(C)c1CCC(=O)N1CCCC(N2CCN(c3ccc(F)cc3)CC2)C1 (stereo unspecified)
  cell number change: 16.1%

## Cc1[nH]n(-c2ccccc2)c(=O)c1C(C[N+](=O)[O-])c1ccccc1Cl (stereo unspecified)
  cell number change: -3.02%

## CCOC(=O)/C=C1\CN(Cc2ccc(OC)cc2)S(=O)(=O)c2ccccc21
  cell number change: 3.89%
[1]
  AC50: 2.06 µM [rising, partial curve]

## CCn1cc(C(=O)O)c(=O)c2cc(F)c(N3CCN(C(=S)NC(=O)c4ccc(F)cc4)CC3)cc21
  cell number change: -10.8%

## N#Cc1c(Cl)nc(N/N=C/c2ccccc2)c(Cl)c1Cl
  cell number change: -1.27%
[1]
  AC50: 16.4 µM [falling, single point]

## O=C(NC1CCCCC1)C1CCCN1S(=O)(=O)c1ccc(F)cc1 (stereo unspecified)
  cell number change: 20.2%

## COC(=O)c1cc(COC(=O)c2nc3nccc(C)n3n2)oc1C
  cell number change: -2.39%

## c1cc(SSc2ccncc2)ccn1
  cell number change: -38.9%
[2]
  AC50: 29.1 µM [falling, single point]
[1]
  AC50: 29.1 µM [falling, single point]

## CN(C)c1ccc(/C=N/n2c(COc3ccccc3)n[nH]c2=S)cc1
  cell number change: 15.4%
[1]
  AC50: 3.26 µM [rising, partial curve, poor fit]

## O=c1[nH]c(C2CCCN(S(=O)(=O)Cc3ccccc3)C2)nc2c1nnn2Cc1cccc(Cl)c1 (stereo unspecified)
  cell number change: 138%
[2]
  AC50: 16.4 µM [rising, single point]

## Cc1ccc(N2C(=O)CC(Sc3ccccc3C(=O)O)C2=O)cc1C (stereo unspecified)
  cell number change: 16.1%

## O=C(NCC1CCCN1S(=O)(=O)c1cccs1)c1c(F)cccc1F (stereo unspecified)
  cell number change: 20.5%

## O=C(Cn1cnc2c(cnn2-c2ccc(F)cc2)c1=O)N1CCCc2ccccc21
  cell number change: -14.2%
[1]
  AC50: 29.1 µM [falling, single point]

## COc1ccc(/C(N)=N/OC(=O)CCCc2ccccc2)cc1
  cell number change: -57.3%
[2]
  AC50: 1.3 µM [falling, full curve]
[1]
  AC50: 18.4 µM [rising, single point]

## COc1ccc(NC(=O)Nc2ccccc2C)c(OC)c1
  cell number change: 31.4%
[2]
  AC50: 0.82 µM [rising, full curve, poor fit]

## CCOc1ccc(C(=O)NCC(=O)NNC(=O)CN(C)S(=O)(=O)c2ccc(Cl)cc2)cc1
  cell number change: 187%
[2]
  AC50: 23.1 µM [rising, single point]

## Cc1ccc(-c2csc3n[nH]c(=S)n23)cc1
  cell number change: -67%
[2]
  AC50: 32.6 µM [falling, partial curve]
[1]
  AC50: 0.103 µM [falling, full curve, poor fit]

## CN(C)C(CNC(=O)CCCN1C(=O)c2cccc3cccc(c23)C1=O)c1ccccc1 (stereo unspecified)
  cell number change: 20.7%
[1]
  AC50: 0.58 µM [rising, single point]

## CCCn1c(SCC(=O)N2c3ccccc3Sc3ccccc32)nc2c1c(=O)n(C)c(=O)n2C
  cell number change: 27.1%
[1]
  AC50: 0.731 µM [rising, single point]

Reference: PubChem BioAssay AID2685 (National Center for Advancing Translational Sciences (NCATS), 2010)
